Tested on: Staphylococcus aureus
Experiment: Antibacterial activity against Staphylococcus aureus ATCC 25923 at 100 ug after 24 hrs by agar plate diffusion assay
Format: functional

Sequence: GENTAMICIN
- inhibition zone (IZ): 17 mm

Reference: ChEMBL document CHEMBL1158258, “Bioactive Isoquinoline Quinone from an Undescribed Philippine Marine Sponge of the Genus Xestospongia” (J Nat Prod, 1996)
